For 54 sequences, binding signal results are on record in article PMC7819943, “Rice protein-binding microarrays: a tool to detect cis-acting elements near promoter regions in rice”.

Some of the results follow.

The target of this assay is T1, OsSMF1 (Oryza sativa, UniProt Q6ZLB0 1-436).
T1 sequence: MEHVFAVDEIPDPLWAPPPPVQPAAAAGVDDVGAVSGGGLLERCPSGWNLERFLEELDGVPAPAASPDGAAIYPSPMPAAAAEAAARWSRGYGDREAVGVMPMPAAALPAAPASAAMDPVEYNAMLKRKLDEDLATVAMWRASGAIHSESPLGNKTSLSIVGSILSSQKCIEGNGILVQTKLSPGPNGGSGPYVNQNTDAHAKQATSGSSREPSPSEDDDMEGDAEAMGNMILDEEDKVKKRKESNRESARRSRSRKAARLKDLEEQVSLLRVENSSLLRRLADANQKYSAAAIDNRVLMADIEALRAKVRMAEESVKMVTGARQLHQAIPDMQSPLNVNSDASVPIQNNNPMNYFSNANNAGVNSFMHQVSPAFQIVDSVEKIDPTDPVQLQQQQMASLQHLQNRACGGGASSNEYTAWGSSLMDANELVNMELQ
The assay is described as follows: protein-binding microarray (RPBM); PBS, 2% BSA, 51.3 ng/ul salmon testes DNA, 50 uM zinc acetate, 200 nM TF, 25 C, 1 h; high values mean tight binding. The following applies: protein: recombinant; tags: N-terminal polyhistidine and DsRed monomer fusion (pET32a); chain copies: 2; label: CyDye5-dUTP incorporated in the synthesized complementary strand; 3' TTTTT single-stranded linker to array surface; dsDNA, one strand shown. A digest of the protocol: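 Ni–NTA purification followed expression in E. coli BL21-CodonPlus of transcription factors fused N-terminally to a polyhistidine tag and DsRed. At 200 nM in PBS with 2% BSA, salmon testes DNA and 50 µM zinc acetate, the protein was incubated for 1 h at 25 °C with a custom Agilent array that had been primer-extended with Cy5-dUTP and blocked with 2% BSA. After washing, the array was read on an Axon 4000B scanner. The binding signal is per-feature fluorescence intensity in arbitrary units.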
Take “CGTACCCGGAGACGAAGTCCACGTCGGAGAACAGGAGCTGCGGAGTCACCTAGTGCAG”: the binding signal was 7820 fluorescence intensity (a.u.).

“ACAGACACGTCGGCCCCACCAACTCCAGGGCCCACATGTCCGGAGTCACCTAGTGCAG”: the binding signal is 5230 fluorescence intensity (a.u.).

With “TATCCATTGCTCCCAAACACTCAGTAAGTACTCATCCAGTCGGAGTCACCTAGTGCAG”, the binding signal is 3800 fluorescence intensity (a.u.).

Turning to “GAGAAACTCATGGTTCATCGTCCCTCCAAACACAAATTCTCGGAGTCACCTAGTGCAG”, the binding signal is 7920 fluorescence intensity (a.u.).

For the sequence “ATAAGTGTTCTATCTCTCCTTTACGTTCCTTGATTCAATCCGGAGTCACCTAGTGCAG”, the binding signal was 3160 fluorescence intensity (a.u.).

Regarding “AACTATAAAATTAGAAAACACGGGGATGATAAGGTTTGGTCGGAGTCACCTAGTGCAG”, the binding signal was 23600 fluorescence intensity (a.u.).

With “GTTGGCCATGGCCTTACATGTCACATAAATAATCATTAACCGGAGTCACCTAGTGCAG”, the binding signal was 3200 fluorescence intensity (a.u.).

Take “TAATAGTGCTCCTACGGTGGGGAAACCTCCTGTTGTTACACGGAGTCACCTAGTGCAG”: the binding signal was 3230 fluorescence intensity (a.u.).

Take “GCCACCGCCGCCGCGCGGTCGACGCAAGGGTAAGGGTAAGCGGAGTCACCTAGTGCAG”: the binding signal is 27600 fluorescence intensity (a.u.).

Take “TCAAATTGTCACATAAGCGTCATGTCAATGCCACGTCAGACGGAGTCACCTAGTGCAG”: the binding signal is 27200 fluorescence intensity (a.u.).

With “GAAGCAACCAAAATCCCTTGTCCTGTCATATTGTCGTACTCGGAGTCACCTAGTGCAG”, the binding signal was 3210 fluorescence intensity (a.u.).

Turning to “ACGACGAGAACTCGGTCCGCGTCACCAACCTGTCGGAGGACGGAGTCACCTAGTGCAG”, the binding signal was 11500 fluorescence intensity (a.u.).

As for “TGCCGGAGGAAGGCGATGGCGCTGGCGGCGTCGACGGGCGCGGAGTCACCTAGTGCAG”, the binding signal was 35900 fluorescence intensity (a.u.).

As to “CTGGTTTTGTGCAGGTGACGCAGCGTCGCATTGAGAACCCCGGAGTCACCTAGTGCAG”, the binding signal was 7240 fluorescence intensity (a.u.).

Consider “GGGTTTATTTGGGCGGTGGGGAGAAATCCGTGGTTCGGTGCGGAGTCACCTAGTGCAG”, for which the binding signal was 4140 fluorescence intensity (a.u.).

With “CTTCGTCGCTCGCCGCCTCATCAGGTATTTTCTGTTATTCCGGAGTCACCTAGTGCAG”, the binding signal is 8380 fluorescence intensity (a.u.).

For “AGAGTAAGCAGCACACGCAAGCAAAAGCCTTGCCTTCACTCGGAGTCACCTAGTGCAG”, the binding signal is 5410 fluorescence intensity (a.u.).

Regarding “TGACGACAGCATAAACAGAAAGCGTGACCAGTCACCAGTGCGGAGTCACCTAGTGCAG”, the binding signal was 4270 fluorescence intensity (a.u.).

Turning to “TACATCCCTCCACGTCATCGATCCGCGCCGCGTGCCTTCCCGGAGTCACCTAGTGCAG”, the binding signal is 37300 fluorescence intensity (a.u.).

Turning to “TCCAATTTTAAAGTTTATGGATGAAATTTAGACCTTTGTGCGGAGTCACCTAGTGCAG”, the binding signal was 18100 fluorescence intensity (a.u.).

Take “GGTTTCTTCCTTGTGATTCTCTGACGTCCTGCGAGATGGTCGGAGTCACCTAGTGCAG”: the binding signal was 3410 fluorescence intensity (a.u.).

“CATTGCCCCTGTTGGTGAGTTGGGCAGCCATGCCGTGCGGCGGAGTCACCTAGTGCAG”: the binding signal is 3500 fluorescence intensity (a.u.).

Take “GCGCGCCGGCAGGCTGGACGAGGCGTACGCCATGGTGACCCGGAGTCACCTAGTGCAG”: the binding signal was 3200 fluorescence intensity (a.u.).

“ACGACTAGTCAGGGATGAGTCGGATGGATATGCTCTTTATCGGAGTCACCTAGTGCAG”: the binding signal is 4790 fluorescence intensity (a.u.).

Regarding “TTTGTTCGAGTTCAATGATTTACCATCGACATTGTCTCCTCGGAGTCACCTAGTGCAG”, the binding signal is 21000 fluorescence intensity (a.u.).

Take “CTCTCCTCTCTTCTCGAGCGCGGCGGCGGTGGTGGGGAGGCGGAGTCACCTAGTGCAG”: the binding signal is 4350 fluorescence intensity (a.u.).

As to “TAACATGACGCACGCGCGCGGCCGCTAACACGCTACTAGTCGGAGTCACCTAGTGCAG”, the binding signal is 4830 fluorescence intensity (a.u.).

Regarding “AAAACTCACACCCGTTAAGCGTGCTTACGTACAGGCGTACCGGAGTCACCTAGTGCAG”, the binding signal was 4050 fluorescence intensity (a.u.).

“CTAATCTAGGATTCCACATTCCGTGACAGCGCCGCCGTGCCGGAGTCACCTAGTGCAG”: the binding signal is 3630 fluorescence intensity (a.u.).

On to “ATTCCATCCAACGTGGCAATATAACATCGACACGTCACCACGGAGTCACCTAGTGCAG”, for which the binding signal was 32200 fluorescence intensity (a.u.).

Regarding “CGGGCACTGCCAGAATGTGTCCATATCCTAAGCAGCAGCCCGGAGTCACCTAGTGCAG”, the binding signal is 3520 fluorescence intensity (a.u.).

Take “TGGATACAAACTTGGGCCAAACACCTTAGTGAAACTCTGACGGAGTCACCTAGTGCAG”: the binding signal is 3150 fluorescence intensity (a.u.).

Consider “CCACCACCAGCTCACGCCTCCCAAGTCCCAAGCGGCGACGCGGAGTCACCTAGTGCAG”, for which the binding signal was 3200 fluorescence intensity (a.u.).

As for “CCGATCGATAATTCCAACGTCGCCGTCGTCATCATTTGTCCGGAGTCACCTAGTGCAG”, the binding signal is 7460 fluorescence intensity (a.u.).

Regarding “CACGCTACCAAGTTATAGCAACTACGCATTGCGTTTGCCACGGAGTCACCTAGTGCAG”, the binding signal is 3460 fluorescence intensity (a.u.).

“TGGCCACCATGCTTGTTAATAGTATAGTAAGCAACTATTGCGGAGTCACCTAGTGCAG”: the binding signal was 3850 fluorescence intensity (a.u.).

As for “TTTAATGATCTTATAAATTGTAATGCTGATAGGTGGTTATCGGAGTCACCTAGTGCAG”, the binding signal was 3590 fluorescence intensity (a.u.).

Take “CGTGCTTCCCTAGTGTCCTCACTTGTTCAGTCCCTGTCACCGGAGTCACCTAGTGCAG”: the binding signal is 4580 fluorescence intensity (a.u.).

In the case of “AAATTATGCCACCTCTCCCCTGCCAACGCACCGCGCCGCCCGGAGTCACCTAGTGCAG”, the binding signal was 3670 fluorescence intensity (a.u.).

Consider “CTGCCCGCACACGTGGACCACGCGTGATGACTCCCCATCGCGGAGTCACCTAGTGCAG”, for which the binding signal was 11800 fluorescence intensity (a.u.).

Take “TTGTGATGGTAGTACGTGGGCTGCTTTTATAGTTTGGTGGCGGAGTCACCTAGTGCAG”: the binding signal was 4190 fluorescence intensity (a.u.).

Take “CTCGGCGCGGCGGGCCCGCGATGCGCAGGTGTGCGTGTCACGGAGTCACCTAGTGCAG”: the binding signal was 5280 fluorescence intensity (a.u.).

Consider “AGGCAGCGTCGTGGTGGTGACTCCGTGCTGACTCGACCGTCGGAGTCACCTAGTGCAG”, for which the binding signal was 15800 fluorescence intensity (a.u.).

In the case of “GGGAGAAATTTCCAAGAAAAGAAAATAGGAGGAAATCGTTCGGAGTCACCTAGTGCAG”, the binding signal was 33500 fluorescence intensity (a.u.).

For the sequence “ATCATTAAATTCGAGCACAGTAATACATGCAAATAATTGTCGGAGTCACCTAGTGCAG”, the binding signal is 36100 fluorescence intensity (a.u.).

Consider “TGTTGATGGCTCATTCCAGGAGAGTGACGGCAAGGGTGGTCGGAGTCACCTAGTGCAG”, for which the binding signal is 3290 fluorescence intensity (a.u.).

In the case of “GCGCGCCTTCGTTGACGTCCGCAACCGCGAGTAGTTCCTGCGGAGTCACCTAGTGCAG”, the binding signal is 3870 fluorescence intensity (a.u.).

Consider “AATACCCCATACGACACCTATATAATACTCGATGACACACCGGAGTCACCTAGTGCAG”, for which the binding signal is 4470 fluorescence intensity (a.u.).

“CCATGCGGGACCGCTTCGCCGCCGCCACCTCGGCTCGGCGCGGAGTCACCTAGTGCAG”: the binding signal was 4120 fluorescence intensity (a.u.).

Turning to “GGGCACTCGAACCATCTAGTGCAGACGTGGTAACTGGCGCCGGAGTCACCTAGTGCAG”, the binding signal is 5510 fluorescence intensity (a.u.).

As for “ACGGAGAAGTCCCGAGACCGGCGCCGCCAGGACCGCCACCCGGAGTCACCTAGTGCAG”, the binding signal was 44400 fluorescence intensity (a.u.).

“GTCCATGGGCAAATTACCACGTTTATGGAGTGTTTTCCCCCGGAGTCACCTAGTGCAG”: the binding signal was 20800 fluorescence intensity (a.u.).

For the sequence “GCTTGGAAATAGTAGGGTGGCCACACCTAAGCCAATGACTCGGAGTCACCTAGTGCAG”, the binding signal was 3970 fluorescence intensity (a.u.).

For the sequence “ACTACTACACCTCGTGCGTGTCAGCGCCCCACACCTGTATCGGAGTCACCTAGTGCAG”, the binding signal is 6110 fluorescence intensity (a.u.).
